No constants are given. Whether binding was seen depends on the method and setting. Some results given as binding are weak or reduced against the parent protein; the word gives no strength. Each block holds one binder with its values, some of them ahead of it.
What was measured:
[1] = biological target: T1, murine JunB (murine, UniProt P09450 1-344); assay: EMSA, 293T nuclear extracts, AICE probes (heterodimer on DNA)
T1 construct: AP-1 family transcription factor, used as nuclear extract
T1 sequence (looked up): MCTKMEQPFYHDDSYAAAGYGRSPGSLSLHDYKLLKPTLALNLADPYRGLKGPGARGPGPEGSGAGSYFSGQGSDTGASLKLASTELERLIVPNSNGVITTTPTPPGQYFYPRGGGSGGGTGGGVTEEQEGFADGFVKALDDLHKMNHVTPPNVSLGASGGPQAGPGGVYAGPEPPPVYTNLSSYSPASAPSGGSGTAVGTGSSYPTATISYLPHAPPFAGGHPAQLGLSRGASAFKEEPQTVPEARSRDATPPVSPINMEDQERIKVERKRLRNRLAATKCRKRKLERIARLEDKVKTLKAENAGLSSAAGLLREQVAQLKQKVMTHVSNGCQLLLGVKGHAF

[2] = biological target: T2, BATF/JunB heterodimer (murine, UniProt O35284 1-125; P09450 1-344); assay: EMSA, 293T nuclear extracts, AICE probes
T2 construct: Formed by mixing 293T nuclear extracts, or endogenous in Th17 nuclear extracts; also called BATF/JunB complex
T2 sequence (looked up) 1: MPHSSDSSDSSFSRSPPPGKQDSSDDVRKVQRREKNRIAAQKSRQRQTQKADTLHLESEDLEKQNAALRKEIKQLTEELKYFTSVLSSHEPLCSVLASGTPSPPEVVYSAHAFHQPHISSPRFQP
T2 sequence (looked up) 2: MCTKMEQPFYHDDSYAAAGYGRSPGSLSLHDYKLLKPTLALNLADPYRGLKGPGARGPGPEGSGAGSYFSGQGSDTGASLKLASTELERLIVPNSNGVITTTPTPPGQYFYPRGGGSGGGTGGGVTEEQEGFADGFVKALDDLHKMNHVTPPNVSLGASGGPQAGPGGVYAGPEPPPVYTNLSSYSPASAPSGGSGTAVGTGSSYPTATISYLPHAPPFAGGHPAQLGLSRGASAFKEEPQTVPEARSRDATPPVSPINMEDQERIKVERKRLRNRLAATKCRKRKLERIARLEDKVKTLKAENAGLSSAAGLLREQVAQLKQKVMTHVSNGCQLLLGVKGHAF
Text: (a-d) EMSAs using the Bcl11b probe and 293T nuclear extracts as a source of indicated proteins (a) c-Jun, BATF, IRF-4, (b) FosL2, JunB, IRF-4, (c) JunB, BATF, IRF-8 or (d) JunB, BATF, IRF-3 (e) EMSA using an ISRE containing probe and IRF-3 or IRF-4. Complexes were supershifted with indicated antibodies. Red and green arrows mark the ternary and quaternary protein-DNA complexes, respectively as in FIG. 1d. Data are representative of at least two independent experiments. (f-h) Th0 cells and Th2 cells differentiated in vitro (42 hours) and LPS-activated dendritic cells (6 hours) were subjected to chromatin crosslinking and immunoprecipitation with antibodies directed against IRF-4. Immunoprecipitated chromatin was deep sequenced and analyzed as in FIG. 3a.
Nuclear extracts were prepared from 293T cells (2×107), 48 hours after their transfection or from Th17 cells (8×107), 42 hours after their activation and differentiation. […]

[3] = biological target: T3, murine BATF (murine), O35284; assay: EMSA, 293T nuclear extracts, AICE probes (heterodimer on DNA); conditions: remark: other sources report otherwise
T3 chain: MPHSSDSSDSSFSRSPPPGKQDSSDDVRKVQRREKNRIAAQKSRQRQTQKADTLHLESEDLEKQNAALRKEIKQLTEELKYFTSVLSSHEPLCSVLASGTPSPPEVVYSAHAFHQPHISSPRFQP

binding [1]: binds
B1: murine FosL2 (protein, UniProt P47930 1-326, looked up)
chain: MYQDYPGNFDTSSRGSSGSPAHAESYSSGGGGQQKFRVDMPGSGSAFIPTINAITTSQDLQWMVQPTVITSMSNPYPRSHPYSPLPGLASVPGHMALPRPGVIKTIGTTVGRRRRDEQLSPEEEEKRRIRRERNKLAAAKCRNRRRELTEKLQAETEELEEEKSGLQKEIAELQKEKEKLEFMLVAHGPVCKISPEERRSPPTSGLQSLRGTGSAVGPVVVKQEPPEEDSPSSSAGMDKTQRSVIKPISIAGGGFYGEEPLHTPIVVTSTPAITPGTSNLVFTYPNVLEQESPSSPSESCSKAHRRSSSSGDQSSDSLNSPTLLAL

binding [2]: binds
B2: DBD of IRF-4 (protein)
chain: NGKLRQWLIDQIDSGKYPGLVWENEEKSVFRIPWKHAGKQDYNREEDAALFKAWALFKGKFREGIDKPDPPTWKTRLRCALNKSNDFEELVERSQLDISDPYKVYRIVPEGAKKGAKQL

binding [3]: binds
B3: murine c-Jun, P05627 1-334 (protein, UniProt P05627 1-334, looked up)
chain: MTAKMETTFYDDALNASFLQSESGAYGYSNPKILKQSMTLNLADPVGSLKPHLRAKNSDLLTSPDVGLLKLASPELERLIIQSSNGHITTTPTPTQFLCPKNVTDEQEGFAEGFVRALAELHSQNTLPSVTSAAQPVSGAGMVAPAVASVAGAGGGGGYSASLHSEPPVYANLSNFNPGALSSGGGAPSYGAAGLAFPSQPQQQQQPPQPPHHLPQQIPVQHPRLQALKEEPQTVPEMPGETPPLSPIDMESQERIKAERKRMRNRIAASKCRKRKLERIARLEEKVKTLKAQNSELASTANMLREQVAQLKQKVMNHVNSGCQLMLTQQLQTF

From US20140378537A1 (Genentech, published 2014)
